{"source": "PubChem BioAssay AID652259 (Drosophila RNAi Screening Center, 2013)", "purpose": "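Genome-wide hunt for genes that control Wingless pathway activity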 (primary screen)", "cells": "Drosophila clone 8 imaginal disc epithelial cells", "knock-down reagent": "long dsRNA against Drosophila genes", "challenge": "pathway stimulated by co-transfected Wingless expression plasmid", "measured": "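Dual luciferase reads per well after Wingless plasmid stimulation: reporter firefly light and Renilla control light; activity is firefly divided by Renilla, a ratio not deposited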", "scale": "firefly reporter light: higher = more Wg reporter light, before normalisation; Renilla control light: higher = more transfected or surviving cells", "rule for the call": "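Strong candidates differ from their plate mean by at least two out of four per-plate statistical tests; weak candidates meet just one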", "meaning of the calls": "active = candidate regulator (raises or lowers reporter); inactive = not a candidate", "note": "The screen tested about 22,000 reagents; this is an unselected part of those with a known target gene and a result. Of all reagents, 233 (1.1%) got an active call. 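Light values are raw, unnormalised plate reads; the ratio scores behind the reporter calls were not deposited.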 Reagents against one gene are numbered here. A plus sign joins genes that one reagent is predicted to hit. No sequences are given here. Not stated in the record: the amount of reagent, the time to read-out, the dose of the treatment."}
{"gene knocked down": "Uros2 (GeneID 41908)", "reagent": 1, "firefly reporter light, replicate 1": 11523, "Renilla control light, replicate 1": 2187, "call": "inactive"}
{"gene knocked down": "CG34214 (GeneID 5740774)", "reagent": 1, "firefly reporter light, replicate 1": 9968, "Renilla control light, replicate 1": 2957, "call": "inactive"}
{"gene knocked down": "grk (GeneID 34171)", "reagent": 1, "firefly reporter light, replicate 1": 11321, "Renilla control light, replicate 1": 5768, "call": "inactive"}
{"gene knocked down": "ppk12 (GeneID 37566)", "reagent": 1, "firefly reporter light, replicate 1": 2708, "firefly reporter light, replicate 2": 7104, "Renilla control light, replicate 1": 425, "Renilla control light, replicate 2": 3696, "call": "inactive"}
{"gene knocked down": "CG6296 (GeneID 43246)", "reagent": 1, "firefly reporter light, replicate 1": 1552, "firefly reporter light, replicate 2": 6210, "Renilla control light, replicate 1": 930, "Renilla control light, replicate 2": 1895, "call": "inactive"}
{"gene knocked down": "CG15084 (GeneID 37178)", "reagent": 1, "firefly reporter light, replicate 1": 22556, "firefly reporter light, replicate 2": 6.77e5, "Renilla control light, replicate 1": 7341, "Renilla control light, replicate 2": 3.74e5, "call": "inactive"}
{"gene knocked down": "CG15084 (GeneID 37178)", "reagent": 2, "firefly reporter light, replicate 1": 3.71e5, "firefly reporter light, replicate 2": 4.10e5, "Renilla control light, replicate 1": 1.59e5, "Renilla control light, replicate 2": 1.36e5, "call": "inactive"}
{"gene knocked down": "Or19a (GeneID 59214)", "reagent": 1, "firefly reporter light, replicate 1": 16759, "Renilla control light, replicate 1": 13436, "call": "inactive"}
{"gene knocked down": "CG9953 (GeneID 38763)", "reagent": 1, "firefly reporter light, replicate 1": 1047, "firefly reporter light, replicate 2": 5377, "Renilla control light, replicate 1": 1410, "Renilla control light, replicate 2": 3875, "call": "inactive"}
{"gene knocked down": "CG32176 (GeneID 39944)", "reagent": 1, "firefly reporter light, replicate 1": 6296, "Renilla control light, replicate 1": 3122, "call": "inactive"}
{"gene knocked down": "CG32176 (GeneID 39944)", "reagent": 2, "firefly reporter light, replicate 1": 7947, "Renilla control light, replicate 1": 2869, "call": "inactive"}

Laid out differently: entries from further up.
| gene knocked down | reagent | reporter change call, replicate 1 | firefly reporter light, replicate 1 | firefly reporter light, replicate 2 | Renilla control light, replicate 1 | Renilla control light, replicate 2 | call |
| --- | --- | --- | --- | --- | --- | --- | --- |
| ppk12 (GeneID 37566) | 1 | – | 2708 | 7104 | 425 | 3696 | inactive |
| CG6296 (GeneID 43246) | 1 | – | 1552 | 6210 | 930 | 1895 | inactive |
| CG15084 (GeneID 37178) | 1 | – | 22556 | 6.77e5 | 7341 | 3.74e5 | inactive |

Further reagents:
{"gene knocked down": "CG10877 (GeneID 42432)", "reagent": 1, "firefly reporter light, replicate 1": 16624, "Renilla control light, replicate 1": 4133, "call": "inactive"}
{"gene knocked down": "TTLL4A (GeneID 47729)", "reagent": 1, "firefly reporter light, replicate 1": 20288, "Renilla control light, replicate 1": 6553, "call": "inactive"}
{"gene knocked down": "CG2201 (GeneID 35417)", "reagent": 1, "firefly reporter light, replicate 1": 6377, "Renilla control light, replicate 1": 1652, "call": "inactive"}
{"gene knocked down": "CG14015 (GeneID 33780)", "reagent": 1, "firefly reporter light, replicate 1": 3035, "firefly reporter light, replicate 2": 2919, "Renilla control light, replicate 1": 742, "Renilla control light, replicate 2": 660, "call": "inactive"}
{"gene knocked down": "CG1233 (GeneID 38063)", "reagent": 1, "firefly reporter light, replicate 1": 13072, "Renilla control light, replicate 1": 2362, "call": "inactive"}
{"gene knocked down": "CG14770 (GeneID 31085)", "reagent": 1, "firefly reporter light, replicate 1": 29024, "Renilla control light, replicate 1": 20762, "call": "inactive"}
{"gene knocked down": "Sprn (GeneID 39344)", "reagent": 1, "firefly reporter light, replicate 1": 5724, "Renilla control light, replicate 1": 2644, "call": "inactive"}
{"gene knocked down": "His2B:CG33870 + His2B:CG33868 + His2B:CG33882 + 21 more", "reagent": 1, "firefly reporter light, replicate 1": 3164, "firefly reporter light, replicate 2": 7475, "Renilla control light, replicate 1": 272, "Renilla control light, replicate 2": 418, "call": "inactive"}
{"gene knocked down": "CG9717 (GeneID 43636)", "reagent": 1, "firefly reporter light, replicate 1": 7078, "Renilla control light, replicate 1": 2676, "call": "inactive"}
{"gene knocked down": "tacc (GeneID 40589)", "reagent": 1, "firefly reporter light, replicate 1": 3402, "Renilla control light, replicate 1": 1335, "call": "inactive"}
{"gene knocked down": "tacc (GeneID 40589)", "reagent": 2, "firefly reporter light, replicate 1": 8417, "firefly reporter light, replicate 2": 8.07e5, "Renilla control light, replicate 1": 1851, "Renilla control light, replicate 2": 3.64e5, "call": "inactive"}
{"gene knocked down": "SpdS (GeneID 41167)", "reagent": 1, "firefly reporter light, replicate 1": 16039, "Renilla control light, replicate 1": 3643, "call": "inactive"}
{"gene knocked down": "SmydA-5 (GeneID 35538)", "reagent": 1, "firefly reporter light, replicate 1": 3306, "firefly reporter light, replicate 2": 6769, "Renilla control light, replicate 1": 781, "Renilla control light, replicate 2": 2742, "call": "inactive"}
{"gene knocked down": "Amun (GeneID 32123)", "reagent": 1, "reporter change call, replicate 1": "Wg reporter activity lowered", "firefly reporter light, replicate 1": 15749, "Renilla control light, replicate 1": 9760, "call": "inactive"}
{"gene knocked down": "CG11168 (GeneID 42981)", "reagent": 1, "firefly reporter light, replicate 1": 2508, "firefly reporter light, replicate 2": 5113, "Renilla control light, replicate 1": 1047, "Renilla control light, replicate 2": 1562, "call": "inactive"}
{"gene knocked down": "CG14500 (GeneID 37087)", "reagent": 1, "firefly reporter light, replicate 1": 7312, "Renilla control light, replicate 1": 2205, "call": "inactive"}
{"gene knocked down": "kst (GeneID 38418)", "reagent": 1, "firefly reporter light, replicate 1": 5869, "Renilla control light, replicate 1": 2345, "call": "inactive"}
{"gene knocked down": "tio (GeneID 44272)", "reagent": 1, "firefly reporter light, replicate 1": 2300, "firefly reporter light, replicate 2": 3724, "Renilla control light, replicate 1": 556, "Renilla control light, replicate 2": 1673, "call": "inactive"}
{"gene knocked down": "CG10254 (GeneID 42793)", "reagent": 1, "firefly reporter light, replicate 1": 2247, "firefly reporter light, replicate 2": 4304, "Renilla control light, replicate 1": 1430, "Renilla control light, replicate 2": 1495, "call": "inactive"}
{"gene knocked down": "SA1 (GeneID 33974)", "reagent": 1, "firefly reporter light, replicate 1": 11840, "Renilla control light, replicate 1": 4409, "call": "inactive"}
{"gene knocked down": "CG1806 (GeneID 32163)", "reagent": 1, "firefly reporter light, replicate 1": 2064, "firefly reporter light, replicate 2": 4361, "Renilla control light, replicate 1": 743, "Renilla control light, replicate 2": 1756, "call": "inactive"}
